PubChem BioAssay AID686943 | Drosophila RNAi Screening Center – 2013

- Aim: 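Knockdowns that increase or decrease active ERK after insulin receptor stimulation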 (primary screen)
- Cells: Drosophila S2R+ haemocyte-like cells expressing YFP-tagged ERK (Rolled)
- Reagent: long dsRNA against Drosophila genes
- Treatment: insulin stimulation versus unstimulated cells; dose and duration not given
- Detection: 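Per-plate z-scores of phospho-ERK immunostaining normalised to YFP-tagged ERK, measured with and without insulin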
- Direction: replicate 1, z-score of dpERK with insulin and replicate 2, z-score of dpERK with insulin: higher = more active ERK per ERK-YFP after insulin
In all, the deposit lists about 23,000 reagents; below is an unselected part of those with a known target gene and a result. 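Extra replicates exist only for a retested subset of genes; insulin dose and duration not given; both raised and lowered dpERK matter.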 Not all columns of the deposit are shown. The record does not give: the amount of reagent, the time to read-out.

Which result is listed for Nup154 [DRSC03384]?
replicate 1, z-score of dpERK with insulin: 0.22; replicate 2, z-score of dpERK with insulin: 0.26

For Dph4 [DRSC12318], how do the results read?
replicate 1, z-score of dpERK with insulin: -0.3; replicate 2, z-score of dpERK with insulin: 0.21

For CG8568 [DRSC20113], how do the results read?
replicate 1, z-score of dpERK with insulin: -0.18; replicate 2, z-score of dpERK with insulin: 0.26

What did the screen give for SP1173 [DRSC11277]?
replicate 1, z-score of dpERK with insulin: 0.33; replicate 2, z-score of dpERK with insulin: 1.07

For CG31752 [DRSC22599], how do the results read?
replicate 1, z-score of dpERK with insulin: 0.57; replicate 2, z-score of dpERK with insulin: 0.54

With Sln [DRSC07133], how do the results read?
replicate 1, z-score of dpERK with insulin: 0.35; replicate 2, z-score of dpERK with insulin: -0.33

Which result is listed for zfh2 [DRSC17178]?
replicate 1, z-score of dpERK with insulin: 0.14; replicate 2, z-score of dpERK with insulin: -0.46

With CG8526 [DRSC16438], what was measured?
replicate 1, z-score of dpERK with insulin: 1.12; replicate 2, z-score of dpERK with insulin: 0.78

Targets above whose gene name begins with C or c:
CG8568 [DRSC20113] → replicate 1, z-score of dpERK with insulin = -0.18; replicate 2, z-score of dpERK with insulin = 0.26
CG31752 [DRSC22599] → replicate 1, z-score of dpERK with insulin = 0.57; replicate 2, z-score of dpERK with insulin = 0.54
CG8526 [DRSC16438] → replicate 1, z-score of dpERK with insulin = 1.12; replicate 2, z-score of dpERK with insulin = 0.78

The list goes on.
For CG15745 (retired record) [DRSC19711], what does the deposit list?
replicate 1, z-score of dpERK with insulin: -0.57; replicate 2, z-score of dpERK with insulin: 0.03

For phr6-4 [DRSC03589], what does the deposit list?
replicate 1, z-score of dpERK with insulin: 0.82; replicate 2, z-score of dpERK with insulin: 1.37

Which result is listed for CG4960 [DRSC15684]?
replicate 1, z-score of dpERK with insulin: -0.23; replicate 2, z-score of dpERK with insulin: -0.03

For CG18048 [DRSC12573], what does the deposit list?
replicate 1, z-score of dpERK with insulin: -0.08; replicate 2, z-score of dpERK with insulin: 0.42
